{"source": "PubChem BioAssay (NCATS)", "note": "Inconclusive results, whose numbers are uncertain, are shown with a selection of clear calls. Potencies of inconclusive entries are doubtful fits and often do not repeat. Active and inactive are the calls of the source. The call rests on the fitted dose curve; in most records, active means well fitted curve in the direction sought with a large enough effect; inconclusive means small, poorly fitted or top-dose-only effect, or another doubt; inactive means no such curve, though single readings can be large; an effect the other way counts as inactive or inconclusive.", "data": [{"assay": "Identifying Small Molecule Inhibitors of Pancreatic Cancer Stem Cells (SN12C, Spheroid) (AID 1259360); further: potency means the concentration at half of the fitted maximal effect;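 on viability (% of control): 100% = DMSO-treated cells and 0% = wells without cells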", "settings": "Potency: SN12C spheroid viability; series mostly up to 46.1 µM; viability (% of control): at the top concentration", "summary_of_the_method": "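Cytotoxicity read by CellTiter-Glo luminescence after 48 h compound exposure at 37C; percent activity scaled between DMSO-treated cells and cell-free wells. Spheroid formats used cells pre-formed 14 days in stem cell media on hydrogel.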", "values": [{"smiles": "COc1c(Cl)cc2c([nH]c3cnccc32)c1NC(=O)c1cccnc1C", "Potency": "inconclusive: 0.0059 µM [rising, full curve, poor fit]"}, {"smiles": "CCCCN1CCC(CNC(=O)c2c3n(c4ccccc24)CCCO3)CC1", "viability (% of control)": "inactive: 98.2%"}, {"smiles": "CN(C)C(=O)c1ccc(S(=O)(=O)c2ccc(NC(=O)[C@@](C)(O)C(F)(F)F)c(Cl)c2)cc1", "Potency": "inconclusive: 18.7 µM [cytotoxic, partial curve, poor fit]"}, {"smiles": "CCCCCCCc1ccc(CCc2cccc(O)c2C(=O)O)cc1", "Potency": "inconclusive: 29.6 µM [cytotoxic, partial curve, poor fit]"}, {"smiles": "NC(=O)Nc1cc(-c2cccc(F)c2)sc1C(=O)N[C@H]1CCCNC1", "Potency": "inconclusive: 20.9 µM [cytotoxic, partial curve]"}, {"smiles": "C=CC(=O)Nc1cc2c(Nc3ccc(F)c(Cl)c3)ncnc2cc1OCCCN1CCOCC1", "Potency": "active: 20.9 µM"}, {"smiles": "OCCn1cc(-c2ccc3c(c2)CCC3=NO)c(-c2ccncc2)n1", "viability (% of control)": "inactive: 91.9%"}, {"smiles": "Cc1c(C(=O)Nc2ccc(N3C[C@@H](C)O[C@@H](C)C3)nc2)cccc1-c1ccc(OC(F)(F)F)cc1", "Potency": "inconclusive: 23.5 µM [cytotoxic, partial curve, poor fit]"}, {"smiles": "CCCc1nn(C)c2c(=O)[nH]c(-c3cc(S(=O)(=O)N4CCN(C)CC4)ccc3OCC)nc12", "viability (% of control)": "inactive: 112%"}]}, {"assay": "Identifying Small Molecule Inhibitors of Pancreatic Cancer Stem Cells (A278, Adherent) (AID 1259361); further: nearly all actives have a fitted effect of over 35% in size;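 on viability (% of control): 100% = DMSO-treated cells and 0% = cell-free media-only wells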", "settings": "viability (% of control): at 46.1 µM (top of the series) unless noted", "summary_of_the_method": "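Endpoint: ATP-based luminescence, 48 h drug exposure. Bortezomib at 9.2 uM final as full-kill control; DMSO vehicle as negative control; activity normalized between vehicle and cell-free wells.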", "values": [{"smiles": "CN(C(=O)c1ccc(F)cc1C(F)(F)F)C1CCN(c2nnc(-c3ccnn3C)c3ccccc23)CC1", "IC50 (viability decrease)": "inconclusive: 33.2 µM [cytotoxic, single point]"}, {"smiles": "CCCCOCCOc1nc(-c2ccc(C(=O)O)c(F)c2)sc1C", "viability (% of control)": "inactive: 99.3"}, {"smiles": "CCCCCCCc1ccc(CCc2cccc(O)c2C(=O)O)cc1", "IC50 (viability decrease)": "inconclusive: 23.5 µM [cytotoxic, single point]"}, {"smiles": "N#CC[C@H](C1CCCC1)n1cc(-c2ncnc3[nH]ccc23)cn1", "IC50 (viability decrease)": "inconclusive: 20.9 µM [cytotoxic, partial curve]"}]}]}
